Primary screen of a compound library

Data taken from ChEMBL document CHEMBL3988442, “University of Dundee, Small-Polar-MMV Screening Library” (2021).

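Whole-cell assay for inhibitors of Mycobacterium tuberculosis growth, labelled Cornell in the record; the read-out is not stated. The concentration is filed as 10 mM, unlikely as a test dose, so the dose is not known. The record gives no direction; compounds strong in two other growth screens of this library score well above the rest, so higher reads as stronger inhibition. About 53,000 compounds were tested under these conditions; 1.7% (about 900) showed 50% or more at least once.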

Each number is a percent effect as filed.
The controls that fix the scale are not given in the record; negative values are as filed.
The compounds are a random part of those screened.

SMILES,percent effect
Cc1nnnn1-c1ccc(CC(=O)N2CCOCC(O)C2)cc1 (configuration not stated),-58.05%
Cn1cc(NC(=O)NCc2ccoc2)ccc1=O,-41.35%
CSc1nnc(CC2CCN(C(=O)COc3cccnc3)CC2)n1C,-38.62%
COc1ccccc1C(=O)N1CC(=O)N(CC(C)C)CC(O)C1 (configuration not stated),11.6%
OC(CN1CCOCC1)c1cc(Cl)ccc1Cl (configuration not stated),-30.82%
COc1nn(C)cc1C(=O)NCC1(O)CCc2ccccc2C1 (configuration not stated),17.39%
O=C(O)C(F)(F)F.[H][C@@]12CCN(c3cccc(F)c3)C[C@@]1([H])O[C@H](C(=O)N1CCCC1)C2,-14.31%
CS(=O)(=O)NC(=O)c1cnc2c(cnn2C2CCCC2)c1,-8.542%
COc1c(C(N)=O)cn(C)c1-c1nc2cc(NC(C)=O)ccc2n1C,1.988%
CN(C)C(=O)N1CCCC(C(=O)N(C)Cc2cnc(N)nc2)C1 (configuration not stated),22.79%
c1cc(C2CCN(c3cnccn3)CC2)ncn1,5.379%
[H][C@]12CC[C@]([H])(CN(C(=O)c3ccc(N)nc3)C1)N(Cc1ccccc1)C2,-38.97%
CCCc1nc(N2CCCC(C)C2)c2c(n1)c(C)nn2CC (configuration not stated),39.06%
CN(C)S(=O)(=O)N1CCC(Oc2cnccn2)CC1,22.99%
CSc1nc2cc(C)n(CC(=O)N3CCCC3)c2c(=O)n1CC(C)C,18.43%
CCN1CCn2c(C)cnc2C12CCN(C(=O)c1ccco1)CC2.O=C(O)C(F)(F)F.O=C(O)C(F)(F)F,5.979%
CCC(NC(=O)C1CCN(S(C)(=O)=O)CC1)c1ccc(C)cc1C (configuration not stated),8.869%
c1ccc(-c2nc(CCNc3nnc(C4CCC4)o3)no2)cc1,16.38%
COCCN1CCC(NC(=O)Cn2cc(C)c3ccccc32)CC1,-1.025%
Cc1c(C(=O)N(C)CC(F)(F)F)nnn1-c1ccc(F)cc1,26.05%
CC(c1ccco1)N(C(=O)NCc1ccon1)C1CC1 (configuration not stated),-19.52%
CCc1nnc2n1CCN(C(=O)c1cc3c(F)cccc3[nH]1)C2,-31.06%
CS(=O)(=O)c1ccc(NC(=O)CSc2ccc3c(c2)CCC3)cn1,-6.284%
CCn1cc(C(=O)NCCc2nc(-c3ccc(C)cc3)n[nH]2)c(C)n1,21.21%
O=C(c1cccc2cccnc12)N1CC[C@@]2(CCCO2)[C@@H](O)C1,-0.7523%
COc1cc(C(C)=O)ccc1OC12CCCN(CC1)C2 (configuration not stated),-12.71%
CC(C)(CNc1cn[nH]c(=O)c1Cl)c1ccc2c(c1)OCO2,11.4%
O=C(O)C(F)(F)F.O=C(O)C(F)(F)F.O=C(O)C(F)(F)F.[H][C@]12C[C@@H](CN(C)C)N(C(C)C)[C@@]1([H])CCN(c1ncc(F)cn1)C2,-10.21%
Cc1nc2cc(O)nn2c(C)c1CCC(=O)NCCc1nccn1C,-14.95%
CC(=O)NC(c1cc(F)ccc1F)C1CC1 (configuration not stated),19.46%
CC(C)NC(=O)NC(C)c1ccc(-c2ccncc2)cc1 (configuration not stated),9.04%
Cc1cccc(CNc2ccc(C(=O)N3CCC(CO)CC3)cc2)c1,13.58%
[H][C@@]12CCN(C(=O)c3cnn(C)c3)[C@@]1([H])CCN2c1ccccn1,14.75%
CN(C)CCNC(=O)CC1CCN(c2cccnn2)CC1,8.308%
CCn1cc(C#N)c(=O)c2cc(Br)ccc21,-8.881%
CCOc1cc(C(=O)N2CCCC(n3nc(C)nc3C)C2)ccn1 (configuration not stated),-11.27%
CN1CCc2ncc(CNc3cc(N(C)C)ncn3)n2CC1.O=C(O)C(F)(F)F,35.43%
CC(CNCc1ccc(Br)cc1)Oc1ccccn1.Cl (configuration not stated),-15.32%
O=C(O)C(F)(F)F.O=C1NC2(CCN(C(=O)c3ccccc3)CC2)CC1c1cccnc1 (configuration not stated),-5.193%
Cc1cc(CN2CCN(c3ccc4nncn4n3)CC2)no1,-0.2574%
CC[C@H]1N(Cc2ccco2)CCC[C@]12CCC(=O)N2C,-63.68%
[H][C@]12CCN(S(=O)(=O)CC(C)C)CC[C@@]1([H])S(=O)(=O)CCN2C(C)=O,12.79%
Cc1n[nH]c(C)c1CNC(=O)NC1CCCN(c2ccccc2F)C1 (configuration not stated),-4.684%
N#Cc1cccc(OCC(=O)N(Cc2ccsc2)C2CC2)c1,34%
CC(=O)N1CCN(Cn2nc(-c3ccc(F)cc3)oc2=O)CC1,2.866%
CC(C)c1nc(N2CC[C@@H](N(C)CCc3ccccn3)[C@H](O)C2)no1,-14.81%
COc1ccncc1NC(=O)c1[nH]nc(C(C)C)c1Br,23.87%
O=C(Nc1cc(N2CCOCC2)ncn1)c1cnccn1,23.2%
CC(C)c1noc(CN(C)C(=O)c2ncn[nH]2)n1,-23.53%
[H][C@]12C[C@H](C(=O)NC)N(S(C)(=O)=O)[C@@]1([H])CN(C(=O)c1ccco1)C2,7.427%
Cc1noc(C(C)C)c1C(=O)NCCN1CCCCCC1=O,30.52%
CC(C)CCC(=O)N1CCN(C(=O)c2ccc(-n3cccn3)cc2)CC1,20.71%
CC(C)c1noc(CN2CCCC2c2noc(C(C)C)n2)n1 (configuration not stated),-15.38%
Cc1cc(N2CCCC(O)CC2)n2nc(C)c(C)c2n1 (configuration not stated),6.103%
O=C(CCCn1cncn1)N1CCCCC1c1nccs1 (configuration not stated),-8.218%
CN(C)Cc1cnn(-c2ccccc2C(=O)N(C)Cc2ccccc2)c1,-20.6%
Cc1ccc(CNC(=O)CN2CCN(CC(O)C3CC3)CC2)cc1.Cl.Cl (configuration not stated),4.55%
CN(CCCc1nccn1C)C(=O)C1CCN(C(=O)C2CC2)CC1,11.16%
CCN1CCCc2cc(CN3CCc4nc(C)[nH]c(=O)c4C3)ccc21,4.014%
O=C(c1ncn2c1CNS(=O)(=O)c1ccccc1-2)N1CCCCCC1,-22.21%
Cn1cc(CC(=O)N2CCOC(c3nc(C(C)(C)C)n[nH]3)C2)cn1 (configuration not stated),31.79%
Cn1cc(CN2CCCC(CCc3ccc(F)c(F)c3)C2)cn1 (configuration not stated),23.53%
Cl.O=C(CCC1CCCC1)NCCn1nc(C2CCNC2)c2nccnc21 (configuration not stated),10.52%
CN(C)CC1CN(Cc2ccsc2)Cc2nccn2C1.O=C(O)C(F)(F)F.O=C(O)C(F)(F)F (configuration not stated),7.636%
COc1cccc2ccn(CC(=O)NCCC(C)C)c12,0.7012%
CN1C(=O)C(c2cccnc2)CC12CCN(Cc1nccs1)CC2 (configuration not stated),-3.362%
O=C1CC(c2ccco2)c2sc(C(=O)O)c(-c3ccccc3)c2N1 (configuration not stated),7.082%
[H][C@@]12C[C@H](c3noc(C)n3)O[C@@]1([H])CCN(C(=O)c1ccoc1C)C2,7.197%
CCc1sc(C(=O)Nc2cnn(CC(N)=O)c2)cc1C,-8.862%
CCc1nc(-c2noc3ccc(C(=O)N(C)CCOC)cc23)co1,13.17%
COc1nn(C)c2c1CCCN(C(=O)c1ccccc1)C2,11.03%
CCCc1n[nH]c(C2CN(Cc3nnc(C4CC4)o3)CCO2)n1 (configuration not stated),-1.99%
O=c1cc(N2CCCCC2)cnn1CC(O)C(F)(F)F (configuration not stated),-0.5957%
CC(C1CC1)N(C)C(=O)c1cnc(-c2ccc3c(c2)OCO3)s1 (configuration not stated),0.5394%
CCOCC1CN(Cc2ccco2)Cc2nccn2C1.O=C(O)C(F)(F)F (configuration not stated),2.396%
[H][C@@]12CN(C3CCN(CC)CC3)C[C@]1([H])N(CCc1cccc(Cl)c1)C(=O)O2,6.852%
COC(=O)c1ccc(N2CCN(CCC#N)C(C)C2)cc1 (configuration not stated),13.35%
c1cc(CNCC2CNc3ccnn3C2)cc(OC2CCCCC2)n1 (configuration not stated),-14.29%
CC(C)OCCN1CCC(N2CCN(C)C2=O)CC1,-52.82%

Repeated from the top, 4 entries:

{"smiles": "Cc1nnnn1-c1ccc(CC(=O)N2CCOCC(O)C2)cc1", "stereo": "configuration not stated", "percent effect": -58.05}
{"smiles": "Cn1cc(NC(=O)NCc2ccoc2)ccc1=O", "percent effect": -41.35}
{"smiles": "CSc1nnc(CC2CCN(C(=O)COc3cccnc3)CC2)n1C", "percent effect": -38.62}
{"smiles": "COc1ccccc1C(=O)N1CC(=O)N(CC(C)C)CC(O)C1", "stereo": "configuration not stated", "percent effect": 11.6}